In doi:10.1101/438481:
Results are given in words; binding and its absence hold for the method and conditions named. For some assays here: Tags and fused reporters may be left off the sequences shown.

T1: Vps24 (yeast), P36095
T1 chain: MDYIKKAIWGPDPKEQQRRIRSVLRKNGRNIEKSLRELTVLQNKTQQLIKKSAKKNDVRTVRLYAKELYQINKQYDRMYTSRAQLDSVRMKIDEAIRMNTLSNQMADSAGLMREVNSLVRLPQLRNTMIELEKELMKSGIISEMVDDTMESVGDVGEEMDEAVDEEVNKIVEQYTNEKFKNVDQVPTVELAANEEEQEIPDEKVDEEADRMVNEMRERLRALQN

T2: Vps20 (Saccharomyces cerevisiae), Q04272
T2 chain: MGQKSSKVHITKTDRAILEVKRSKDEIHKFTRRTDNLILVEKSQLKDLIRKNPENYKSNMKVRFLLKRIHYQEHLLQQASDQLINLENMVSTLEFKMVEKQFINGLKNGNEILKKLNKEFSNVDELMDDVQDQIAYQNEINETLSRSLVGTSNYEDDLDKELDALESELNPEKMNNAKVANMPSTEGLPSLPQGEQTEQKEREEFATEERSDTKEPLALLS


How the values were obtained:
Vps24 (yeast), P36095 = biological target: T1, Vps24 (yeast), P36095; experiment: SEC; settings: remark: other sources report otherwise
[1] = biological target: T2, Vps20 (Saccharomyces cerevisiae), Q04272; experiment: SEC; settings: remark: other sources report otherwise

Row | binding (Vps24 (yeast), P36095) | binding [1] | Binder
1 | no binding | – | Vps24, P36095 1-224 (protein) MDYIKKAIWGPDPKEQQRRIRSVLRKNGRNIEKSLRELTVLQNKTQQLIKKSAKKNDVRTVRLYAKELYQINKQYDRMYTSRAQLDSVRMKIDEAIRMNTLSNQMADSAGLMREVNSLVRLPQLRNTMIELEKELMKSGIISEMVDDTMESVGDVGEEMDEAVDEEVNKIVEQYTNEKFKNVDQVPTVELAANEEEQEIPDEKVDEEADRMVNEMRERLRALQN
2 | – | no binding | Vps20, Q04272 1-221 (protein) MGQKSSKVHITKTDRAILEVKRSKDEIHKFTRRTDNLILVEKSQLKDLIRKNPENYKSNMKVRFLLKRIHYQEHLLQQASDQLINLENMVSTLEFKMVEKQFINGLKNGNEILKKLNKEFSNVDELMDDVQDQIAYQNEINETLSRSLVGTSNYEDDLDKELDALESELNPEKMNNAKVANMPSTEGLPSLPQGEQTEQKEREEFATEERSDTKEPLALLS
